Among the data in US11564971B2, “Hyaluronic acid derivative having amino acid and steryl group introduced thereinto” (CHUGAI SEIYAKU KABUSHIKI KAISHA, priority 2012, dated 2023) are solubility of paclitaxel values, retold here.

This data set in a line: Encapsulation of paclitaxel: paclitaxel concentration (solubility) in supernatant (Example 6-1). The data set is classed as physicochemical. Particulars: in the absence of HA derivatives; ultrapure water, 4° C. overnight.

`CC(=O)O[C@H]1C(=O)[C@@]2(C)[C@H]([C@H](OC(=O)c3ccccc3)[C@]3(O)C[C@H](OC(=O)[C@H](O)[C@@H](NC(=O)c4ccccc4)c4ccccc4)C(C)=C1C3(C)C)[C@]1(OC(C)=O)CO[C@@H]1C[C@@H]2O` [paclitaxel, Paclitaxel] displayed a solubility of paclitaxel of 0.6 µg/mL.
